Measured values reported in article doi:10.1101/2025.11.10.687237.
No constants are given. Whether binding was seen depends on the method and setting. Some entries that bind do so weakly or less than the wild type.

Target: T1, Slx5 (SUMO-targeted ubiquitin ligase) (budding yeast) (UniProt P32828)
T1 sequence: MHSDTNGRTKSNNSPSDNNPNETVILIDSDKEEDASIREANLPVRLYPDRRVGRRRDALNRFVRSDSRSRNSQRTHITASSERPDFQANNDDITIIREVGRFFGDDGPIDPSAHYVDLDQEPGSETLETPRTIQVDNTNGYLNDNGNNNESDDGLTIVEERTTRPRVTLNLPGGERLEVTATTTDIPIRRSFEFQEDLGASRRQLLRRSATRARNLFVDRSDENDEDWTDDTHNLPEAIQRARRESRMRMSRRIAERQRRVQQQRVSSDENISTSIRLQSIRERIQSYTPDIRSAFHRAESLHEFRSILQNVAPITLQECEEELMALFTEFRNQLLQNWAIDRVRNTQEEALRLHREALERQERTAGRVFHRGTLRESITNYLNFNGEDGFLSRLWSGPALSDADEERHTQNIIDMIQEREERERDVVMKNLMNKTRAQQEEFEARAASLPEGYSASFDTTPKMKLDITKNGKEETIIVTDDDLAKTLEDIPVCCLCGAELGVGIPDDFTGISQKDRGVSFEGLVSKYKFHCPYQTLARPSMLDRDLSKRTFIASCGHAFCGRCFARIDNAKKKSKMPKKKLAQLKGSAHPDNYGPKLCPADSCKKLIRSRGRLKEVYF
Assay: two-hybrid

- binding: binds
B1: Cin8 (yeast kinesin-5) (protein, UniProt P27895 1-1000)
chain: MPAENQNTGQDRSSNSISKNGNSQVGCHTVPNEELNITVAVRCRGRNEREISMKSSVVVNVPDITGSKEISINTTGDTGITAQMNAKRYTVDKVFGPGASQDLIFDEVAGPLFQDFIKGYNCTVLVYGMTSTGKTYTMTGDEKLYNGELSDAAGIIPRVLLKLFDTLELQQNDYVVKCSFIELYNEELKDLLDSNSNGSSNTGFDGQFMKKLRIFDSSTANNTTSNSASSSRSNSRNSSPRSLNDLTPKAALLRKRLRTKSLPNTIKQQYQQQQAVNSRNNSSSNSGSTTNNASSNTNTNNGQRSSMAPNDQTNGIYIQNLQEFHITNAMEGLNLLQKGLKHRQVASTKMNDFSSRSHTIFTITLYKKHQDELFRISKMNLVDLAGSENINRSGALNQRAKEAGSINQSLLTLGRVINALVDKSGHIPFRESKLTRLLQDSLGGNTKTALIATISPAKVTSEETCSTLEYASKAKNIKNKPQLGSFIMKDILVKNITMELAKIKSDLLSTKSKEGIYMSQDHYKNLNSDLESYKNEVQECKREIESLTSKNALLVKDKLKSKETIQSQNCQIESLKTTIDHLRAQLDKQHKTEIEISDFNNKLQKLTEVMQMALHDYKKRELDLNQKFEMHITKEIKKLKSTLFLQLNTMQQESILQETNIQPNLDMIKNEVLTLMRTMQEKAELMYKDCVKKILNESPKFFNVVIEKIDIIRVDFQKFYKNIAENLSDISEENNNMKQYLKNHFFKNNHQELLNRHVDSTYENIEKRTNEFVENFKKVLNDHLDENKKLIMQNLTTATSAVIDQEMDLFEPKRVKWENSFDLINDCDSMNNEFYNSMAATLSQIKSTVDTSSNSMNESISVMKGQVEESENAISLLKNNTKFNDQFEQLINKHNMLKDNIKNSITSTHSHITNVDDIYNTIENIMKNYGNKENATKDEMIENILKEIPNLSKKMPLRLSNINSNSVQSVISPKKHAIEDENKSSENVDNEGSRKMLKIE
